According to publication PMC8373065:
These are yes or no findings as the source states them, for the method shown. Where a sequence is shown, tags or fusion partners need not be part of it.

Biological target: human METTL2A with N-terminal His6 tag (human) (UniProt Q96IZ6)
Assay: SEC; gel filtration of purified METTL2A on Superdex S200 and Superdex S75, mass from the elution volumes of standard proteins; both purified

binding: no binding
B1: human METTL2A with N-terminal His6 tag (enzyme, UniProt Q96IZ6 1-378)
chain: MAGSYPEGAPAVLADKRQQFGSRFLRDPARVFHHNAWDNVEWSEEQAAAAERKVQENSIQRVCQEKQVDYEINAHKYWNDFYKIHENGFFKDRHWLFTEFPELAPSQNQNHLKDWFLENKSEVPECRNNEDGPGLIMEEQHKCSSKSLEHKTQTLPVEENVTQKISDLEICADEFPGSSATYRILEVGCGVGNTVFPILQTNNDPGLFVYCCDFSSTAIELVQTNSEYDPSRCFAFVHDLCDEEKSYPVPKGSLDIIILIFVLSAIVPDKMQKAINRLSRLLKPGGMMLLRDYGRYDMAQLRFKKGQCLSGNFYVRGDGTRVYFFTQEELDTLFTTAGLEKVQNLVDRRLQVNRGKQLTMYRVWIQCKYCKPLLSSTS
